For one substance, binding results are on record in paper PMC9997026.

Sequences of proteins named here, by UniProt entry; tags and fusion partners are left off.
UniProt P27695: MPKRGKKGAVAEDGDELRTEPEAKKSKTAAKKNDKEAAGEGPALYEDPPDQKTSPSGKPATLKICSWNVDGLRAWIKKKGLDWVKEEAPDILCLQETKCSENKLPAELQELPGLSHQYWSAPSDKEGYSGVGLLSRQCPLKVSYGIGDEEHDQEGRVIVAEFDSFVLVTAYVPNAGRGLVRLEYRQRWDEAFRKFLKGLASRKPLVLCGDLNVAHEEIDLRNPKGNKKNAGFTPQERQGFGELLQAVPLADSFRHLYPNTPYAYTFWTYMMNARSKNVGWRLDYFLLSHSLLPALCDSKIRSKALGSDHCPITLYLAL
UniProt P78527: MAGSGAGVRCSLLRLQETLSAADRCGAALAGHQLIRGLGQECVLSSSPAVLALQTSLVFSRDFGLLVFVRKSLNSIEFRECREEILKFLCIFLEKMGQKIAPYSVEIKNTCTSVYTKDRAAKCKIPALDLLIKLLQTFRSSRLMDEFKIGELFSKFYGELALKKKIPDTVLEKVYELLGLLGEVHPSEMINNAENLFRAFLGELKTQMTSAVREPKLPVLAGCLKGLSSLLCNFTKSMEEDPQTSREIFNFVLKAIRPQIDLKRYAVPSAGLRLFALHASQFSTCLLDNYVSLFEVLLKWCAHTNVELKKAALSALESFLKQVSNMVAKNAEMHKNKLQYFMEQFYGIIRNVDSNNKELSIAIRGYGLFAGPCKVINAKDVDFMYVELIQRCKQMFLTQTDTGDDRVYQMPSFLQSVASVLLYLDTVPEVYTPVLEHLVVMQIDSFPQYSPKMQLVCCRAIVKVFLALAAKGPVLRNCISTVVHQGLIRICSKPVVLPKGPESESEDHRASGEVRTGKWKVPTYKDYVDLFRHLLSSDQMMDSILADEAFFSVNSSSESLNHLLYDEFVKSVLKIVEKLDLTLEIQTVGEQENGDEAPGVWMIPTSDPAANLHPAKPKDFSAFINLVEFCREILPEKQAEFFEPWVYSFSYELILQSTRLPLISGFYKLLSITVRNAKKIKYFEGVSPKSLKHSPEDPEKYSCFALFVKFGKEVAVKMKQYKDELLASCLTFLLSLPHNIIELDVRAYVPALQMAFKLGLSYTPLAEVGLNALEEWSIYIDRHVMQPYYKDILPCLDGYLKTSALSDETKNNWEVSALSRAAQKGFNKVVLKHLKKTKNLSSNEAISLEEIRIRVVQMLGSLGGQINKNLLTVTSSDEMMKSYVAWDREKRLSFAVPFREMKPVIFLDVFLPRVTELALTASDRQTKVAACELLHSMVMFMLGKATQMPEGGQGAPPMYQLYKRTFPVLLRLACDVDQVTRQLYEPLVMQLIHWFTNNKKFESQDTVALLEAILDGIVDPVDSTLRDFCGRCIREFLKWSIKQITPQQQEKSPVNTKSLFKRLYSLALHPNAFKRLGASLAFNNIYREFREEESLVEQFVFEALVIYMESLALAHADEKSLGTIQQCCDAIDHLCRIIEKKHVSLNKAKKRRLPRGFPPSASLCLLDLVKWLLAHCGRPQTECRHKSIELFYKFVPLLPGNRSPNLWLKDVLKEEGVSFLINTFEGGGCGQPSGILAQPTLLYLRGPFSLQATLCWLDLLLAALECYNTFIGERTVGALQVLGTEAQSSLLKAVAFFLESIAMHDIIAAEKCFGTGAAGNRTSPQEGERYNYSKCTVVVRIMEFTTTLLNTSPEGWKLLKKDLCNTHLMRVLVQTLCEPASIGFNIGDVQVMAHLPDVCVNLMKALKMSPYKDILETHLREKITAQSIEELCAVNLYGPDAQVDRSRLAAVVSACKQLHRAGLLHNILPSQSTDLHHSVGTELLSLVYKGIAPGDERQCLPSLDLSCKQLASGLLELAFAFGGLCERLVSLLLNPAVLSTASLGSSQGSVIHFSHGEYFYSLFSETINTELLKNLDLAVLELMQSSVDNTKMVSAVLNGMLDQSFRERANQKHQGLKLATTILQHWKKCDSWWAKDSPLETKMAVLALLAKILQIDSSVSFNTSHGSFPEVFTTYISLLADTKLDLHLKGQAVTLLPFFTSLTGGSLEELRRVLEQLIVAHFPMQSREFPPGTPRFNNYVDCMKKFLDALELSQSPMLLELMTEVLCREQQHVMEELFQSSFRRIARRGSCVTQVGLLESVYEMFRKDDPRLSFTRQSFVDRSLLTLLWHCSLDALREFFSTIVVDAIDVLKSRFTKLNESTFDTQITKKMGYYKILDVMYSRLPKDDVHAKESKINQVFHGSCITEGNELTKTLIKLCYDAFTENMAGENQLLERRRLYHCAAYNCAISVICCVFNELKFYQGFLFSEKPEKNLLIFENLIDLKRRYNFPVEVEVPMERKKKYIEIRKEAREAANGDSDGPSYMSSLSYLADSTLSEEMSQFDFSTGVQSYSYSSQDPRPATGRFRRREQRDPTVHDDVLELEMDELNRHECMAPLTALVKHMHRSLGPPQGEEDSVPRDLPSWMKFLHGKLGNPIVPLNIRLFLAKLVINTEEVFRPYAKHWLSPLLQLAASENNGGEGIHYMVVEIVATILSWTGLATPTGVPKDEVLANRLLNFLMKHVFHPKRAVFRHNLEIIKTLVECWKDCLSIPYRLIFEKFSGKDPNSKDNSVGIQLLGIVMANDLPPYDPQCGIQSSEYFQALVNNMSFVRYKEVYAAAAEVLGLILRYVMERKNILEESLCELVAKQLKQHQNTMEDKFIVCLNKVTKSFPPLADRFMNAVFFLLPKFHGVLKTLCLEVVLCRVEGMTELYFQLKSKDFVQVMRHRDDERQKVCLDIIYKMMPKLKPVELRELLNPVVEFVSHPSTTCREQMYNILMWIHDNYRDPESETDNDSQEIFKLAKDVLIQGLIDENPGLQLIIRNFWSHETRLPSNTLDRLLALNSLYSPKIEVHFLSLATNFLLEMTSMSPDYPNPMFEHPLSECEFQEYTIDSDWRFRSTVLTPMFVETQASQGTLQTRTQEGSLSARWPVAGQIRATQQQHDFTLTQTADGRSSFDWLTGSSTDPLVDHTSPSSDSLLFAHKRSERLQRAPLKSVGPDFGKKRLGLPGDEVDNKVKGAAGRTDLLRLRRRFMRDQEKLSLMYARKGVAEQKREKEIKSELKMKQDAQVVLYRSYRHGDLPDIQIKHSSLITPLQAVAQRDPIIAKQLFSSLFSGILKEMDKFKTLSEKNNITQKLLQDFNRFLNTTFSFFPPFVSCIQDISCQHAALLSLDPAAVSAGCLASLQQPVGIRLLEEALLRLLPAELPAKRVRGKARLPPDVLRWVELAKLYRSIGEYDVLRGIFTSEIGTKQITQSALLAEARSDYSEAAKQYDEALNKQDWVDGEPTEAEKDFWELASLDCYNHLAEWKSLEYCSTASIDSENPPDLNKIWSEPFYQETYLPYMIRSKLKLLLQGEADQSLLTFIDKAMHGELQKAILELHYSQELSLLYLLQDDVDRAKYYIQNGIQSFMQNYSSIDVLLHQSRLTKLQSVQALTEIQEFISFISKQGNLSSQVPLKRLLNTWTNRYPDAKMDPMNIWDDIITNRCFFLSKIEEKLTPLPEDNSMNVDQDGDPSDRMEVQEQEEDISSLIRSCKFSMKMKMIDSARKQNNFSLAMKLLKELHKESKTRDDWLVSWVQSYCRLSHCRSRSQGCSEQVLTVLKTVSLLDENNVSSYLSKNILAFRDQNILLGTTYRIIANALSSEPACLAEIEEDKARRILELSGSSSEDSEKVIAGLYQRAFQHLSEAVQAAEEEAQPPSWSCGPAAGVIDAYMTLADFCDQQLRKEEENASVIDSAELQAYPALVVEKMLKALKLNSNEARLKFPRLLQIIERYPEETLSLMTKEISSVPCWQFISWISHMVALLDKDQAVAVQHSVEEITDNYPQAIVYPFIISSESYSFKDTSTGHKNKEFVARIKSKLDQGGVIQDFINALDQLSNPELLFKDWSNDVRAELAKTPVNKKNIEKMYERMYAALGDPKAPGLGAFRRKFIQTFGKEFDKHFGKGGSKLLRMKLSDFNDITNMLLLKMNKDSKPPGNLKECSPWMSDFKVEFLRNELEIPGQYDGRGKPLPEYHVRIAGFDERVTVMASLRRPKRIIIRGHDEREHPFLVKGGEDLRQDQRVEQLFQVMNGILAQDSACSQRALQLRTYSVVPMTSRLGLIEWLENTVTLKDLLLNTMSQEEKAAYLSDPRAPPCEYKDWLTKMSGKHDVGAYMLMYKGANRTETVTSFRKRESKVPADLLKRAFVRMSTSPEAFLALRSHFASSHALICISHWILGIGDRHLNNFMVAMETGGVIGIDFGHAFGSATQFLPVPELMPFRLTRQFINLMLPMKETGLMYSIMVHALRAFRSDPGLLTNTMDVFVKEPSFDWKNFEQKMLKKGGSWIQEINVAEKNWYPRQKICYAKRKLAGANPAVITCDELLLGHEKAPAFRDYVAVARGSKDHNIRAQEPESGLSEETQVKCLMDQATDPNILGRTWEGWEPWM

No constants are given. Whether binding was seen depends on the method and setting. In cells and extracts the contact can be indirect. Some binding calls cover weakened binding; strength is not graded here.

In this test the target is Apurinic/apyrimidinic endonuclease 1 (human (endogenous in HeLa)) (UniProt P27695). Briefly: co-IP; APE1 immunoprecipitated (anti-APE1, Abcam ab192) from HeLa WT cells, untreated or after TBHP 1 h and 1 h recovery, or after IR and 1 h recovery; immunoblot for DNA-PKcs. (A western blot detects proteins with antibodies after separation by electrophoresis.)

Consider “DNA-dependent protein kinase catalytic subunit (from UniProt P78527 1-4128)”, for which the binding result is “binds”.
